According to PMC8384837:
Positions count from the first letter of the chain named. Some of the results follow. For some assays here: At the low end of the ranking the order means little.

Key:
Conditions in all cases: yeast three-hybrid, YBZ-1, SC-Leu-His + 0.5 mM 3-AT, 4 days
[1] = target: T1, PUM1 PUF domain R4-SWP N971S + H972W + Q975P (UniProt Q14671)
T1 sequence: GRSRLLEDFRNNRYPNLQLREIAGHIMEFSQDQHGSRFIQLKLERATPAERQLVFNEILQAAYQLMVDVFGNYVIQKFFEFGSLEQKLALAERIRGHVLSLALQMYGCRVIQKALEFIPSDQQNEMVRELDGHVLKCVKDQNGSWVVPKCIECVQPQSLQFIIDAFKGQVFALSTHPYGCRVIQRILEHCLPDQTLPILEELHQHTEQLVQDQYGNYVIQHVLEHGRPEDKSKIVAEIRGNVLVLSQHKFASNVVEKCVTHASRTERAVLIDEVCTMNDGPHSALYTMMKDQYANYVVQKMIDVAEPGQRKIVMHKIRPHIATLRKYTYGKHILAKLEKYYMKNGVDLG

[2] = target: T2, PUM1 PUF domain R4-SYP N971S + H972Y + Q975P (UniProt Q14671)
T2 sequence: T1 sequence with W145Y

[3] = target: T3, PUM1 PUF domain R4-TAQ N971T + H972A (UniProt Q14671)
T3 sequence: T1 sequence with S144T, W145A, P148Q

[4] = target: T4, PUM1 PUF domain R4-TNG N971T + H972N + Q975G (UniProt Q14671)
T4 sequence: T1 sequence with S144T, W145N, P148G

[5] = target: T5, PUM1 PUF domain R4-TPA N971T + H972P + Q975A (Homo sapiens) (UniProt Q14671)
T5 sequence: T1 sequence with S144T, W145P, P148A

[6] = target: T6, PUM1 PUF domain R4-TPC N971T + H972P + Q975C (UniProt Q14671)
T6 sequence: T1 sequence with S144T, W145P, P148C

[7] = target: T7, PUM1 PUF domain R4-TPG N971T + H972P + Q975G (UniProt Q14671)
T7 sequence: T1 sequence with S144T, W145P, P148G

[8] = target: T8, PUM1 PUF domain R4-TPN N971T + H972P + Q975N (UniProt Q14671)
T8 sequence: T1 sequence with S144T, W145P, P148N

[9] = target: T9, PUM1 PUF domain R4-TPS N971T + H972P + Q975S (UniProt Q14671)
T9 sequence: T1 sequence with S144T, W145P, P148S

[10] = target: T10, PUM1 PUF domain R4-TPV N971T + H972P + Q975V (UniProt Q14671)
T10 sequence: T1 sequence with S144T, W145P, P148V

[11] = target: T11, PUM1 PUF domain R4-TRG N971T + H972R + Q975G (UniProt Q14671)
T11 sequence: T1 sequence with S144T, W145R, P148G

[12] = target: T12, PUM1 PUF domain R4-TRT N971T + H972R + Q975T (UniProt Q14671)
T12 sequence: T1 sequence with S144T, W145R, P148T

[13] = target: T13, PUM1 PUF domain R4-VCA N971V + H972C + Q975A (UniProt Q14671)
T13 sequence: T1 sequence with S144V, W145C, P148A

[14] = target: T14, PUM1 PUF domain R4-VFP N971V + H972F + Q975P (UniProt Q14671)
T14 sequence: T1 sequence with S144V, W145F

[15] = target: T15, PUM1 PUF domain R4-VGI N971V + H972G + Q975I (UniProt Q14671)
T15 sequence: T1 sequence with S144V, W145G, P148I

[16] = target: T16, PUM1 PUF domain R4-VGL N971V + H972G + Q975L (Homo sapiens) (UniProt Q14671)
T16 sequence: T1 sequence with S144V, W145G, P148L

[17] = target: T17, PUM1 PUF domain R4-VGY N971V + H972G + Q975Y (UniProt Q14671)
T17 sequence: T1 sequence with S144V, W145G, P148Y

[18] = target: T18, PUM1 PUF domain R4-VLY N971V + H972L + Q975Y (UniProt Q14671)
T18 sequence: T1 sequence with S144V, W145L, P148Y

[19] = target: T19, PUM1 PUF domain R4-VNA N971V + H972N + Q975A (UniProt Q14671)
T19 sequence: T1 sequence with S144V, W145N, P148A

[20] = target: T20, PUM1 PUF domain R4-VNG N971V + H972N + Q975G (UniProt Q14671)
T20 sequence: T1 sequence with S144V, W145N, P148G

[21] = target: T21, PUM1 PUF domain R4-VNS N971V + H972N + Q975S (UniProt Q14671)
T21 sequence: T1 sequence with S144V, W145N, P148S

[22] = target: T22, PUM1 PUF domain R4-VNT N971V + H972N + Q975T (UniProt Q14671)
T22 sequence: T1 sequence with S144V, W145N, P148T

[23] = target: T23, PUM1 PUF domain R4-VNV N971V + H972N + Q975V (UniProt Q14671)
T23 sequence: T1 sequence with S144V, W145N, P148V

[24] = target: T24, PUM1 PUF domain R4-VPA N971V + H972P + Q975A (UniProt Q14671)
T24 sequence: T1 sequence with S144V, W145P, P148A

[25] = target: T25, PUM1 PUF domain R4-VPC N971V + H972P + Q975C (UniProt Q14671)
T25 sequence: T1 sequence with S144V, W145P, P148C

[26] = target: T26, PUM1 PUF domain R4-VPG N971V + H972P + Q975G (UniProt Q14671)
T26 sequence: T1 sequence with S144V, W145P, P148G

[27] = target: T27, PUM1 PUF domain R4-VPS N971V + H972P + Q975S (UniProt Q14671)
T27 sequence: T1 sequence with S144V, W145P, P148S

[28] = target: T28, PUM1 PUF domain R4-VPT N971V + H972P + Q975T (UniProt Q14671)
T28 sequence: T1 sequence with S144V, W145P, P148T

[29] = target: T29, PUM1 PUF domain R4-VRG N971V + H972R + Q975G (Homo sapiens) (UniProt Q14671)
T29 sequence: T1 sequence with S144V, W145R, P148G

[30] = target: T30, PUM1 PUF domain R4-VRT N971V + H972R + Q975T (UniProt Q14671)
T30 sequence: T1 sequence with S144V, W145R, P148T

[31] = target: T31, PUM1 PUF domain R4-VSI N971V + H972S + Q975I (UniProt Q14671)
T31 sequence: T1 sequence with S144V, W145S, P148I

[32] = target: T32, PUM1 PUF domain R4-VSL N971V + H972S + Q975L (UniProt Q14671)
T32 sequence: T1 sequence with S144V, W145S, P148L

[33] = target: T33, PUM1 PUF domain R4-WAA N971W + H972A + Q975A (UniProt Q14671)
T33 sequence: T1 sequence with S144W, W145A, P148A

[34] = target: T34, PUM1 PUF domain R4-WAC N971W + H972A + Q975C (UniProt Q14671)
T34 sequence: T1 sequence with S144W, W145A, P148C

[35] = target: T35, PUM1 PUF domain R4-WAG N971W + H972A + Q975G (UniProt Q14671)
T35 sequence: T1 sequence with S144W, W145A, P148G

[36] = target: T36, PUM1 PUF domain R4-WAR N971W + H972A + Q975R (UniProt Q14671)
T36 sequence: T1 sequence with S144W, W145A, P148R

[37] = target: T37, PUM1 PUF domain R4-WAS N971W + H972A + Q975S (UniProt Q14671)
T37 sequence: T1 sequence with S144W, W145A, P148S

[38] = target: T38, PUM1 PUF domain R4-WAV N971W + H972A + Q975V (UniProt Q14671)
T38 sequence: T1 sequence with S144W, W145A, P148V

What does the source list for “GGCUAGAACUAGUGGAUCCCCCGGCGCCCGGCGGCUCGAGCCCGGGUAAGUGUAGAUAGUCUGCAUGCCGCCGGGCGCCAUGCCUGCAGGUCGACUCUAGAAAACAUG”?
binding signal (log2 enrichment (interaction score)) [1]: < -5.67; binding signal (log2 enrichment (interaction score)) [2]: < -6.42; binding signal (log2 enrichment (interaction score)) [3]: < -6.51; binding signal (log2 enrichment (interaction score)) [4]: < -6.49; binding signal (log2 enrichment (interaction score)) [5]: -0.12; binding signal (log2 enrichment (interaction score)) [6]: < -6.12; binding signal (log2 enrichment (interaction score)) [7]: < -8.49; binding signal (log2 enrichment (interaction score)) [8]: < -5.57; binding signal (log2 enrichment (interaction score)) [9]: < -7.51; binding signal (log2 enrichment (interaction score)) [10]: < -5.8; binding signal (log2 enrichment (interaction score)) [11]: < -7.52; binding signal (log2 enrichment (interaction score)) [12]: < -5.1; binding signal (log2 enrichment (interaction score)) [13]: < -6.04; binding signal (log2 enrichment (interaction score)) [14]: < -5.08; binding signal (log2 enrichment (interaction score)) [15]: < -5.96; binding signal (log2 enrichment (interaction score)) [16]: -3.46; binding signal (log2 enrichment (interaction score)) [17]: < -7.66; binding signal (log2 enrichment (interaction score)) [18]: < -6.97; binding signal (log2 enrichment (interaction score)) [19]: < -5.37; binding signal (log2 enrichment (interaction score)) [20]: < -6.51; binding signal (log2 enrichment (interaction score)) [21]: < -5.92; binding signal (log2 enrichment (interaction score)) [22]: < -5.67; binding signal (log2 enrichment (interaction score)) [23]: < -6.96; binding signal (log2 enrichment (interaction score)) [24]: < -8.41; binding signal (log2 enrichment (interaction score)) [25]: < -7.41; binding signal (log2 enrichment (interaction score)) [26]: < -9.45; binding signal (log2 enrichment (interaction score)) [27]: < -7.96; binding signal (log2 enrichment (interaction score)) [28]: < -6.69; binding signal (log2 enrichment (interaction score)) [29]: -3.93; binding signal (log2 enrichment (interaction score)) [30]: < -5.44; binding signal (log2 enrichment (interaction score)) [31]: < -5.94; binding signal (log2 enrichment (interaction score)) [32]: < -8.33; binding signal (log2 enrichment (interaction score)) [33]: < -6.12; binding signal (log2 enrichment (interaction score)) [34]: < -6.19; binding signal (log2 enrichment (interaction score)) [35]: < -6.24; binding signal (log2 enrichment (interaction score)) [36]: < -7.09; binding signal (log2 enrichment (interaction score)) [37]: < -6.34; binding signal (log2 enrichment (interaction score)) [38]: < -7.95
